Data from article doi:10.1101/2021.10.10.463828 (bioRxiv, 2021).
No constants are given. Whether binding was seen depends on the method and setting. In cells and extracts the contact can be indirect. Some entries that bind do so weakly or less than the wild type. Tags and fused reporters may be left off the sequences shown.

The chains behind the UniProt entries cited, without tags or fusion partners. Residues count along the entry.
UniProt P0CS90, residues 24-654: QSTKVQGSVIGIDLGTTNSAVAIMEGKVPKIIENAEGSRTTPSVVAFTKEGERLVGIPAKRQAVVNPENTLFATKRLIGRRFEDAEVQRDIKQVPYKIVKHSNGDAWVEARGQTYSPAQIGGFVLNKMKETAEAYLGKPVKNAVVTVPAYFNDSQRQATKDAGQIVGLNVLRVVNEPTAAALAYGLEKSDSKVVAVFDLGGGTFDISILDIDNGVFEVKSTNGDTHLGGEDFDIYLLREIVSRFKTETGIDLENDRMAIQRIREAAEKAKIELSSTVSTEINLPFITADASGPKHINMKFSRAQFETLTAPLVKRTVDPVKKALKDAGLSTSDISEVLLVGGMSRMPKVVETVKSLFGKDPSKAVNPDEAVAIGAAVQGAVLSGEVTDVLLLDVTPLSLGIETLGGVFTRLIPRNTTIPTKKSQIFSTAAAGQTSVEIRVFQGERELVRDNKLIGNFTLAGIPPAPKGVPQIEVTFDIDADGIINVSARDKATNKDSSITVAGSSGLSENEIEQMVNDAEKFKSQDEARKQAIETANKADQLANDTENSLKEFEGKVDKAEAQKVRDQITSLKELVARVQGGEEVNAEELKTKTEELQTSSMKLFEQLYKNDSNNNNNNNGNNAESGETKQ

T1: Tim17 with an affinity tag, endogenous TIM complex (S. cerevisiae) (UniProt P39515)
T1 sequence: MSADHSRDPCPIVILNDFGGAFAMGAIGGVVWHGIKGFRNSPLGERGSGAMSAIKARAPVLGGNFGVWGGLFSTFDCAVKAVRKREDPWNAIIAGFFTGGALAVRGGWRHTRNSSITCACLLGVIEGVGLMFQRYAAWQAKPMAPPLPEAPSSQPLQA

T2: Tim21 with an affinity tag (S. cerevisiae) (UniProt P53220)
T2 sequence: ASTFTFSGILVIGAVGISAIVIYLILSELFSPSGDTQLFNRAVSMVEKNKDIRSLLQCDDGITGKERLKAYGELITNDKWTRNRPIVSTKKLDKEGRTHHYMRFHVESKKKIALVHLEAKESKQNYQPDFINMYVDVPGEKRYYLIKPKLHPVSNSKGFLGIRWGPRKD

T3: Tim17 with an affinity tag, overexpressed (S. cerevisiae) (UniProt P39515)
T3 sequence (chain, disulfide bond between Cys10 and Cys77): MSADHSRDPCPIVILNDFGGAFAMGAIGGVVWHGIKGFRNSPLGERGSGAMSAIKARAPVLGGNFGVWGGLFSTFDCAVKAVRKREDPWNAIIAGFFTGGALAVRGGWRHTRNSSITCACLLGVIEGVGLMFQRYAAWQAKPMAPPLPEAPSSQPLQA

T4: Tim21 with an affinity tag (S. cerevisiae), P53220
T4 chain: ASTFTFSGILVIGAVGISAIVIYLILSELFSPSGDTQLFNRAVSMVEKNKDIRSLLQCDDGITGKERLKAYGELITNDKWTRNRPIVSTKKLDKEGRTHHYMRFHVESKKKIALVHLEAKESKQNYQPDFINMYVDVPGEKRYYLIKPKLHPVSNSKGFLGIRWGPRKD


How the values were obtained:
Assay in all cases: pull-down
[1] = target: T1, Tim17 with an affinity tag, endogenous TIM complex (S. cerevisiae)
[2] = target: T2, Tim21 with an affinity tag (S. cerevisiae)
[3] = target: T3, Tim17 with an affinity tag, overexpressed (S. cerevisiae)
[4] = target: T4, Tim21 with an affinity tag (S. …); conditions: remark: other sources report otherwise

| binding [1] | binding [3] | Molecule | other results |
| --- | --- | --- | --- |
| binds | binds | mitochondrial heat-shock protein 70 (endogenous) (from UniProt P0CS90 24-654) | binding [2]: no binding |
|  |  | Pam18, overexpressed, Q07914 1-168 (protein) MSSQSNTGNSIEAPQLPIPGQTNGSANVTVDGAGVNVGIQNGSQGQKTGMDLYFDQALNYMGEHPVITGFGAFLTLYFTAGAYKSISKGLNGGKSTTAFLKGGFDPKMNSKEALQILNLTENTLTKKKLKEVHRKIMLANHPDKGGSPFLATKINEAKDFLEKRGISK | binding [4]: no binding |
|  | binds | Pam16, overexpressed (protein, UniProt P42949 1-149) MAHRAFIQVIITGTQVFGKAFAEAYRQAASQSVKQGATNASRRGTGKGEYGGITLDESCKILNIEESKGDLNMDKINNRFNYLFEVNDKEKGGSFYLQSKVYRAAERLKWELAQREKNAKAKAGDASTAKPPPNSTNSSGADNSASSNQ |  |
|  |  | Pam16, overexpressed, P42949 1-149 (protein) MAHRAFIQVIITGTQVFGKAFAEAYRQAASQSVKQGATNASRRGTGKGEYGGITLDESCKILNIEESKGDLNMDKINNRFNYLFEVNDKEKGGSFYLQSKVYRAAERLKWELAQREKNAKAKAGDASTAKPPPNSTNSSGADNSASSNQ | binding [4]: no binding |
| binds |  | Tim21 (endogenous) (protein, UniProt P53220 71-239) ASTFTFSGILVIGAVGISAIVIYLILSELFSPSGDTQLFNRAVSMVEKNKDIRSLLQCDDGITGKERLKAYGELITNDKWTRNRPIVSTKKLDKEGRTHHYMRFHVESKKKIALVHLEAKESKQNYQPDFINMYVDVPGEKRYYLIKPKLHPVSNSKGFLGIRWGPRKD |  |
|  | binds | Tim21, overexpressed (protein, UniProt P53220 71-239) ASTFTFSGILVIGAVGISAIVIYLILSELFSPSGDTQLFNRAVSMVEKNKDIRSLLQCDDGITGKERLKAYGELITNDKWTRNRPIVSTKKLDKEGRTHHYMRFHVESKKKIALVHLEAKESKQNYQPDFINMYVDVPGEKRYYLIKPKLHPVSNSKGFLGIRWGPRKD |  |
| binds |  | Tim23, overexpressed (natural protein) MSWLFGDKTPTDDANAAVGGQDTTKPKELSLKQSLGFEPNINNIISGPGGMHVDTARLHPLAGLDKGVEYLDLEEEQLSSLEGSQGLIPSRGWTDDLCYGTGAVYLLGLGIGGFSGMMQGLQNIPPNSPGKLQLNTVLNHITKRGPFLGNNAGILALSYNIINSTIDALRGKHDTAGSIGAGALTGALFKSSKGLKPMGYSSAMVAAACAVWCSVKKRLLEK |  |
